# Literature values as cited in patent publication US20140171436A1, “TREATMENT OF ANTIFOLATE NEUROTOXICITY” (Syntrix Biosystems, Inc., priority 2003, published 2014).
# At least one compound was matched to its structure with a doubt left.
# Conditions: in words; 'No' = none known; cited from earlier work
structure (smiles),measurement,value
"Cc1ccccc1NC(=N)Nc1ccccc1C [DTG, di-tolyl-guanidine]",Other known affinity,Sigma-2
